Measurements published in publication PMC12040169 (PLOS Biology, 2025).
Some of the results follow.

The molecules below were run on T1, CTL2-GFP (C. trachomatis L2/434/Bu, GFP-expressing). Conditions: bulk GFP, single well; 28.5 h, 10 µM; inhibitor.
T1 construct: L2/434/Bu, GFP-expressing
Design: species or system HeLa; Intracellular C. trachomatis growth in HeLa cells, bulk GFP fluorescence relative to DMSO

Row | Compound | % of control remaining [%]
1 | COc1ccc(CNc2nc(-c3cccnc3)nn2C(=O)c2ccc([N+](=O)[O-])cc2)cc1 [CBK268966] | 131.646
2 | O=C(NCc1cccc(C(F)(F)F)c1)N1CCN(CCc2ccccc2)CC1 [CBK158902] | 110.744
3 | OCC1CCCN1c1nccnc1-c1cccnc1 (stereo not shown) [CBK089049] | 142.075
4 | Cc1ccc(Nc2nc(N)nc(CSc3nnc(-c4ccncc4)o3)n2)cc1 [CBK266464] | 163.218
5 | O=C(O)COCC(=O)N1CCN(CCc2ccccc2)CC1 [CBK270298] | 76.046
6 | Cc1ccccc1OCc1nnc(SCc2nnc(-c3ccccc3)o2)n1C [CBK267406] | 148.374
7 | Clc1ccc(CN2CCN(c3nccnc3OCCN3CCOCC3)CC2)cc1 [CBK082887T] | 104.942
8 | O=C(Nc1ccc2c(c1)CCO2)N1CCCC1c1nc(-c2ccccc2)c2ccccn12 (stereo not shown) [CBK046733] | 108.336
9 | COc1ccc(-c2cc(NC(=S)NC(=O)/C=C/c3ccccc3)[nH]n2)cc1 [CBK007190] | 84.7521
10 | CC(C)(N)CNC(=O)c1cc(-c2ccc(Cl)cc2)[nH]n1 [CBK116554] | 100
11 | O=c1c2c(-c3ccc(F)cc3)csc2ncn1CC1(CO)CCOCC1 [CBK306822] | 129.64
12 | CCCc1ccc(N(C)C(=O)c2ccc(OCC)cc2)cc1 [CBK161615] | 66.5127
13 | O=C(NCc1ccncc1)c1ccc(-n2ccnc2)c(-n2cccc2)c1 [CBK285367] | 124.551
14 | Cc1cc(C)c2c(CC(=O)N(C)CCN(C)C)coc2c1 [CBK282174] | 128.105
15 | Cc1cc(-c2cnc(N)nc2)cc(C2CCCN(C(=O)COc3c(C)cccc3C)C2)n1 (stereo not shown) [CBK285933] | 89.1971
16 | CC1=NN(C(=O)c2c(Cl)c(C)nn2C)C(O)(C(F)(F)F)C1 (stereo not shown) [CBK058892] | 102.626
17 | c1cncc(OCCN2CCN(c3nccnc3OCCN3CCOCC3)CC2)c1 [CBK082914] | 123.525
18 | CC(=O)Nc1nc(OCC(F)(F)F)cnc1-c1cccc(C(=O)N(C)C)c1 [CBK145401] | 114.453
19 | CN(C)c1ncc(-c2ccccc2)c(C2CCCN2Cc2ccc3ncccc3c2)n1 (stereo not shown) [CBK286256] | 109.886
20 | c1coc(CNc2ncc(-c3ccc4c(c3)OCO4)c(-c3cccs3)n2)c1 [CBK286414] | 144.506
21 | CCC(c1ccc(F)cc1)n1cncc1-c1cnn(C)c1 (stereo not shown) [CBK281883] | 120.691
22 | COc1ccc(Cn2c(=O)n(S(=O)(=O)c3cccc(-c4nnc(C)o4)c3)c3ccccc32)cc1 [CBK106558] | 120.114
23 | O=C1NC(=O)C(CCCCN2CCCC3(CCN(C(=O)c4cc(F)c(F)cc4F)C3)C2)N1 (stereo not shown) [CBK132020] | 127.955
24 | Cc1cc(NC(=O)C(C)OC(=O)C(NC(=O)OC(C)(C)C)c2ccccc2)no1 (stereo not shown) [CBK170398] | 125.505
25 | Cc1cc(C)cc(CC(C)Cc2nc3ccccc3[nH]2)c1 (stereo not shown) [CBK262432] | 119.629
26 | COc1ccc(C(NC(=O)N2CCN(C(=O)NCc3ccccc3Cl)CC2)c2ccccc2C)cn1 (stereo not shown) [CBK081471] | 118.592
27 | CC(=O)Nc1cccc(NC(=O)N2CCNC(=O)C2)c1 [CBK155863] | 109.228

Row | Compound | % of control remaining [%]
28 | Cc1cc(N2CCOC(c3nc(C)n[nH]3)C2)c2ccc(F)c(F)c2n1 (stereo not shown) [CBK306018] | 115.201
29 | CCOC(=O)c1cnc2ccc(F)cc2c1NCc1ccco1 [CBK265834] | 132.306
30 | O=C1CCCN1CC#CCN1CCN(Cc2ccccc2)CC1 [CBK023770C] | 100.077
31 | CN1CCN(c2nc(-c3ccc(-c4ccccc4)cc3)cnc2N)CC1 [CBK063421] | 84.4548
32 | CC1(C)C(=O)NCCN1C(=O)Cn1cnc2ccccc21 [CBK281856] | 166.164
33 | NC(=O)c1c(NC(=O)CSc2nnc(-c3ccccc3)n2CC2CCCO2)sc2c1CCC2 (stereo not shown) [CBK084789] | 99.8598
34 | O=C(c1ccc2[nH]nnc2c1)N1CCc2ccccc21 [CBK200365] | 133.406
35 | C=CCN(C(=S)NCc1ccc2c(c1)OCO2)C1CCCCC1 [CBK200037] | 133.425
36 | CN1CCC(O)(Cn2cnc3cc(-c4ccc(F)cc4)sc3c2=O)CC1 [CBK307434] | 121.801
37 | c1ccc(CSc2nnc3[nH]c4ccccc4n23)cc1 [CBK267841] | 109.688
38 | Cc1nc(CCNCc2c(C)nn(C)c2N(C)C)cs1 [CBK304828] | 105.764
39 | CC(=O)c1ccc(-c2nc(-c3ccoc3)cnc2N)cc1 [CBK064058] | 150.099
40 | O=S(=O)(Nc1ccc(C(O)(C(F)(F)F)C(F)(F)F)cc1)c1ccccc1Br [CBK062101] | 109.402
41 | Cc1nc2cc(C(=O)NC(C)c3ccccn3)ccc2n1C (stereo not shown) [CBK281822] | 180.337
42 | Cc1nc[nH]c1CN1CCCN(S(=O)(=O)c2ccc(-n3cnc(Cl)c3Cl)cc2)CC1 [CBK063087] | 118.476
43 | COc1cnc(-c2cnn(C)c2)c(NC(=O)c2ccco2)n1 [CBK145329] | 174.64
44 | CC(=O)N(C)Cc1cccc(Nc2ncnc3c2cnn3CCC#N)c1 [CBK306232] | 132.703
45 | O=[N+]([O-])c1ccc(N2CCN(C/C=C/c3ccccc3[N+](=O)[O-])CC2)cc1 [CBK261895] | 115.318
46 | O=C(O)CC(CC(=O)N1CCN(Cc2ccc3c(c2)OCO3)CC1)c1ccccc1 (stereo not shown) [CBK074769] | 105.131
47 | N#Cc1cc(CN2CCCN(S(=O)(=O)c3ccc(C(F)(F)F)cc3Cl)CC2)ccc1F [CBK063100] | 69.3247
48 | Cc1ccc(-c2n[nH]c(=S)n2CC(=O)N2CCC(C(=O)Nc3ccc4c(c3)OCO4)CC2)cc1 [CBK297887] | 126.015
49 | CCOc1c(CNCc2ccccn2)cccc1OC [CBK268104C] | 147.218
50 | CC(C)(C)OC(=O)N1CCC(C(Cc2ccc(-c3ccc(S(C)(=O)=O)cc3)cc2)C(=O)NCCOCCO)CC1 (stereo not shown) [CBK173128] | 100.09
51 | Cc1ccc(C(=O)NCCc2nnc3ccc(Cl)nn23)cc1 [CBK287636] | 108.218
52 | COc1nc2ccn(CCNC(=O)C(C)C)c(=O)c2cc1C#N [CBK307015] | 142.724
53 | CC(=O)NCc1ccc(C)n1C [CBK046356] | 142.462
54 | CN(Cc1cnn(C)c1)C(=O)c1ccc(Br)cc1O [CBK305742] | 138.474

Row | Compound | % of control remaining [%]
55 | CNC(=O)CCc1ccccc1NC(=O)NCCSc1ncn[nH]1 [CBK307253] | 131.889
56 | CCOC(=O)N1CCC(NC(=O)CCC(=O)O)CC1 [CBK286569] | 124.482
57 | Cc1nnnn1-c1cc(NC(=O)NCCCc2nc[nH]n2)ccc1F [CBK304102] | 131.27
58 | CN(Cc1ccccc1)c1nccnc1-c1ccsc1 [CBK037394] | 173.978
59 | CCCCCn1c(=O)c(C(=O)NCc2ccc(Cl)cc2)c(O)c2ccccc21 [CBK291131] | 122.134
60 | CN(C)C(=O)c1ccc(-c2ncc(OCc3cccs3)nc2N)cc1 [CBK145187] | 100.149
61 | Cc1cc(Cl)ccc1CNC(=O)C1(c2ccccc2)CCCC1 [CBK149519] | 116.807
62 | CSCCN1CCC2(CC1)CN(CC(N)=O)c1ccccc12 [CBK126801] | 125.935
63 | Cn1c2ccccc2c2nnc(SCCc3ccccc3)nc21 [CBK267986] | 72.109
64 | O=C(O)CN1C(=O)C(=O)/C(=C(O)\C=C\c2ccccc2)C1c1ccccc1 (stereo not shown) [CBK286551] | 101.214
65 | O=C(Cn1cnnn1)N1CCc2ccccc21 [CBK200367] | 111.288
66 | O=C(CCn1c(=O)oc2cc(Cl)ccc21)NCc1ccco1 [CBK269857] | 142.365
67 | O=C(Nc1cccnc1)c1cc(S(=O)(=O)N2CCOCC2)ccc1Br [CBK270101] | 112.103
68 | Cc1cccc(N2CCN(C(=O)C3CCN(Cc4cccc(OCc5ccccc5)c4)CC3)CC2)c1C [CBK264328G] | 94.4558
69 | Cc1ccc(N2C(=O)c3ccccc3C2=O)cc1 [CBK113243] | 119.18
70 | Cc1ccc(C)c(C(=O)C2=C(O)C(=O)N(CCN(C)C)C2c2cccc(Cl)c2)c1 (stereo not shown) [CBK265495] | 132.487
71 | Cc1ccccc1C1(O)CCN(CC(O)c2ccc(F)cc2)CC1 (stereo not shown) [CBK282471] | 139.193
72 | CCOC(=O)NC(=S)NC(=O)C(C)(C)C [CBK020037] | 124.873
73 | CCN1C(=O)COC[C@@H]1[C@H](O)c1ccc(NC(=O)c2ccco2)cc1 [CBK289695] | 117.854
74 | COc1cccc(C(=O)N2CCC(NC(=O)c3ccc(C(F)(F)F)cc3)CC2)c1 [CBK155022] | 89.6924
75 | OCCCCn1c(-c2cccnc2)n[nH]c1=S [CBK288365] | 154.516
76 | CC(=O)NC(c1nccs1)C1CCCN(C(=O)C2CCCC2)C1 (stereo not shown) [CBK284966] | 119.721
77 | CCn1c(SCC(=O)Nc2ccccc2[N+](=O)[O-])nnc1-c1cc(Br)ccc1O [CBK268201] | 112.217
78 | COc1cccc(Oc2nccnc2-c2cccs2)c1 [CBK107059] | 110.455
79 | COc1ccc(-c2cnc3[nH]c(=O)n(CCCN4CCOCC4)c3n2)c(OC)c1OC [CBK064249] | 73.241

Some of these compounds in order of length of the SMILES, ascending:
Row | Compound | % of control remaining [%]
17 | c1cncc(OCCN2CCN(c3nccnc3OCCN3CCOCC3)CC2)c1 [CBK082914] | 123.525
36 | CN1CCC(O)(Cn2cnc3cc(-c4ccc(F)cc4)sc3c2=O)CC1 [CBK307434] | 121.801
45 | O=[N+]([O-])c1ccc(N2CCN(C/C=C/c3ccccc3[N+](=O)[O-])CC2)cc1 [CBK261895] | 115.318
